The source of these data is PubChem BioAssay AID256 (DTP/NCI, 2004).

The list shows only some results of the screen, not a fair sample: it is rich in T/C values a quarter to a half above the control, in often repeated tests (any T/C) and in doses without a T/C. Other doses and runs of a compound stand elsewhere. T/C: endpoint of the treated group in % of that of the vehicle group. Some entries give survivors of the animals treated and no T/C: the source holds a T/C of zero for them, seemingly a mark for toxic or unscored doses. Some doses without a T/C left all or most animals alive at the check, yet need not have been tolerated: survival well below the control is almost never listed, so the zero probably covers shortened survival too. Survivors were counted at the toxicity check, usually on the fifth day, unless a day is given; later deaths do not show. Schedules are NCI's codes, taken here to give the interval after Q, in days (D) or hours (H), and the number of doses after X. Some doses were run more than once; their values stand side by side, smallest first. For survival time, the PubChem record calls one and a half times the control and up active, and a quarter to a half above the control has no call in these data; cut-offs in other NCI protocols can differ. Some T/C values are followed by the survivors on the day toxicity was checked, most often the fifth; where none is given, no animal had died by that day.

In the assay the test system is CD2F1 mice, L1210 leukemia ip, survival T/C. The experiment in a line: NCI In Vivo Anticancer Drug Screen. Data for tumor model L1210 Leukemia (intraperitoneal) in CD2F1 (CDF1) mice. Particulars: higher T/C = longer survival. A digest of the protocol: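 Vehicle-treated tumor-bearing mice served as controls (C) for compound-treated mice (T). Reported figure is T divided by C.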

The mark [1] stands for this setting: T/C endpoint: mean survival time, dose: 50.0 mg/kg/injection, schedule: Q01DX009 (ip), vehicle: saline with Tween-80.
Where [2] appears, read: T/C endpoint: mean survival time, dose: 400.0 mg/kg/injection, schedule: Q01DX009 (ip), vehicle: Klucel (hydroxypropylcellulose) (HPC).

Regarding `CC1(C)N=C(N)N=C(N)N1c1ccc(CCCCc2ccc(S(=O)(=O)F)cc2Cl)c(Cl)c1`, the T/C reads like this: (T/C endpoint: mean survival time, dose: 12.0 mg/kg/injection, schedule: Q01DX009 (ip), vehicle: Klucel (hydroxypropylcellulose) (HPC)) 135 % of control; (T/C endpoint: mean survival time, dose: 16.5 mg/kg/injection, schedule: Q01DX009 (ip), vehicle: saline with Tween-80) 133 % of control; (T/C endpoint: mean survival time, dose: 16.5 mg/kg/injection, schedule: Q04DX003 (ip), vehicle: acetone) 133 % of control; (T/C endpoint: mean survival time, dose: 20.0 mg/kg/injection, schedule: Q01DX009 (ip), vehicle: Klucel (hydroxypropylcellulose) (HPC)) 135 % of control; (T/C endpoint: mean survival time, dose: 24.75 mg/kg/injection, schedule: Q01DX009 (ip), vehicle: saline with Tween-80) 146 % of control; (T/C endpoint: mean survival time, dose: 24.75 mg/kg/injection, schedule: Q04DX003 (ip), vehicle: acetone) 132 % of control. For the same molecule, the T/C was 132 % of control (T/C endpoint: mean survival time, dose: 25.0 mg/kg/injection, schedule: Q01DX009 (ip), vehicle: saline with Tween-80); 125 % of control (T/C endpoint: mean survival time, dose: 33.3 mg/kg/injection, schedule: Q01DX009 (ip), vehicle: Klucel (hydroxypropylcellulose) (HPC)); 139 % of control (T/C endpoint: mean survival time, dose: 48.0 mg/kg/injection, schedule: Q01DX009 (ip), vehicle: saline with Tween-80); 132 % of control under setting [1]; 133 % of control (T/C endpoint: mean survival time, dose: 50.0 mg/kg/injection, schedule: Q04DX003 (ip), vehicle: saline); 145 % of control (T/C endpoint: mean survival time, dose: 60.0 mg/kg/injection, schedule: Q01DX009 (ip), vehicle: saline with Tween-80). For the same molecule, the T/C was 136 % of control (T/C endpoint: mean survival time, dose: 89.0 mg/kg/injection, schedule: Q04DX003 (ip), vehicle: saline with Tween-80); 137 % of control (T/C endpoint: mean survival time, dose: 200.0 mg/kg/injection, schedule: Q04DX003 (ip), vehicle: saline with Tween-80); 134 % of control [9 of 10 alive] (T/C endpoint: median survival time, dose: 18.0 mg/kg/injection, schedule: Q01DX009 (ip), vehicle: saline with Tween-80, evaluated on day 30); 134 % of control (T/C endpoint: median survival time, dose: 18.0 mg/kg/injection, schedule: Q01DX009 (ip), vehicle: saline with Tween-80, evaluated on day 45); 139 % of control (T/C endpoint: median survival time, dose: 27.0 mg/kg/injection, schedule: Q01DX009 (ip), vehicle: saline with Tween-80); 134 % of control (T/C endpoint: median survival time, dose: 59.0 mg/kg/injection, schedule: Q04DX003 (ip), vehicle: saline with Tween-80). For the same molecule, the T/C (T/C endpoint: median survival time, dose: 89.0 mg/kg/injection, schedule: Q04DX003 (ip), vehicle: saline with Tween-80) was 128 % of control; the T/C (T/C endpoint: median survival time, dose: 90.0 mg/kg/injection, schedule: Q01DX009 (ip), vehicle: saline with Tween-80) is 131 % of control; the T/C (T/C endpoint: median survival time, dose: 134.0 mg/kg/injection, schedule: Q04DX003 (ip), vehicle: saline with Tween-80) is 139 % of control. Moreover, the survivor count (T/C endpoint: mean survival time, dose: 75.0 mg/kg/injection, schedule: Q04DX003 (ip), vehicle: saline) is 3 of 6; the survivor count (T/C endpoint: mean survival time, dose: 150.0 mg/kg/injection, schedule: Q01DX009 (ip), vehicle: saline with Tween-80) is on record as 6 of 6; the survivor count (T/C endpoint: mean survival time, dose: 300.0 mg/kg/injection, schedule: Q01DX009 (ip), vehicle: saline with Tween-80) is 3 of 6; the survivor count (T/C endpoint: mean survival time, dose: 450.0 mg/kg/injection, schedule: Q04DX003 (ip), vehicle: saline with Tween-80) was 6 of 6; the survivor count (T/C endpoint: mean survival time, dose: 600.0 mg/kg/injection, schedule: Q01DX009 (ip), vehicle: saline with Tween-80) is listed as 0 of 6.
`CCCCCCCCCCCCCCCCOc1ccccc1/C=N/O`: the survivor count under setting [2] is 6 of 6.
In the case of `CCN(CC)C(=O)c1cc[n+](Cc2ccc(Cl)cc2)cc1`, the survivor count (T/C endpoint: mean survival time, dose: 400.0 mg/kg/injection, schedule: Q04DX003 (ip), vehicle: saline) is 0 of 6.
For `COC(=O)Nc1cccc(-c2nc3ccc(NC(=O)OC)cc3c(=O)n2-c2ccccc2)c1`, the survivor count is, setting by setting: (T/C endpoint: mean survival time, dose: 200.0 mg/kg/injection, schedule: Q01DX009 (ip), vehicle: Klucel (hydroxypropylcellulose) (HPC)) 0 of 6; under setting [2], 0 of 6. Where the note is “T/C endpoint: median survival time, dose: 400.0 mg/kg/injection, schedule: Q04DX003 (ip), vehicle: saline with Tween-80”, the T/C was 129 % of control [9 of 10 alive].
`CSc1nc(NN)n2nccc2n1`: under “T/C endpoint: median survival time, dose: 200.0 mg/kg/injection, schedule: Q01DX005 (ip), vehicle: saline”, the survivor count is listed as 1 of 6.
Consider `CCOc1ccc(Nc2c3ccccc3nc3ccccc23)cc1`, for which the T/C (T/C endpoint: mean survival time, dose: 100.0 mg/kg/injection, schedule: Q01DX009 (ip), vehicle: saline with Tween-80) was 131 % of control [5 of 6 alive]. Moreover, the survivor count (T/C endpoint: mean survival time, dose: 400.0 mg/kg/injection, schedule: Q01DX009 (ip), vehicle: saline with Tween-80) is listed as 0 of 6.
With `CCOC(=O)Nc1cc(NC(c2ccc(Cl)cc2)c2ccc(Cl)cc2)c2[nH]cnc2n1`, the survivor count is given as 2 of 6 (T/C endpoint: mean survival time, dose: 150.0 mg/kg/injection, schedule: Q01DX001 (ip), vehicle: other) and 1 of 6 (T/C endpoint: mean survival time, dose: 300.0 mg/kg/injection, schedule: Q01DX001 (ip), vehicle: other).
For the molecule `CCCCCCCCCCCCCCNC(=O)Nc1ccc(Cl)c(Cl)c1`, the survivor count (T/C endpoint: mean survival time, dose: 400.0 mg/kg/injection, schedule: Q04DX003 (ip), vehicle: other) is listed as 6 of 6.
For `CCOC(=O)CC(=O)c1c(C)cc(C)c(Br)c1C`, the survivor count (T/C endpoint: mean survival time, dose: 100.0 mg/kg/injection, schedule: Q04DX003 (ip), vehicle: saline with Tween-80) is 6 of 6.
`CCCCCCCCSC1=C(Cl)C(=O)C(OC)=C(OC)C1=O`: under setting [1], the survivor count was 2 of 6 and 4 of 6.
For `N#CC(C(N)=O)C1CC(=O)Oc2ccccc21` (configuration not stated), the survivor count (T/C endpoint: mean survival time, dose: 400.0 mg/kg/injection, schedule: Q04DX003 (ip), vehicle: Klucel (hydroxypropylcellulose) (HPC)) is 6 of 6.
On to `COc1cc(C=Nc2cc(Br)cc(Br)c2)ccc1N(CCCl)CCCl`, for which the T/C is, setting by setting: (T/C endpoint: mean survival time, dose: 50.0 mg/kg/injection, schedule: Q01DX001 (ip), vehicle: other) 125 % of control; (T/C endpoint: mean survival time, dose: 100.0 mg/kg/injection, schedule: Q01DX001 (ip), vehicle: other) 141 % of control.
On to `CCCN(CCC)N=Nc1ccccc1`, for which, under “T/C endpoint: mean survival time, dose: 300.0 mg/kg/injection, schedule: Q01DX001 (ip), vehicle: saline”, the survivor count is on record as 0 of 6.
For `CN(Cc1cnc2nc(N[Si](C)(C)C)nc(N[Si](C)(C)C)c2n1)c1ccc(C(=O)NC(CCC(=O)O[Si](C)(C)C)C(=O)O[Si](C)(C)C)cc1` (configuration not stated), the T/C is 149 % of control (T/C endpoint: mean survival time, dose: 0.63 mg/kg/injection, schedule: Q01DX009 (ip), vehicle: saline); 128 % of control (T/C endpoint: mean survival time, dose: 3.8 mg/kg/injection, schedule: Q04DX003 (ip), vehicle: saline); 146 % of control (T/C endpoint: mean survival time, dose: 5.0 mg/kg/injection, schedule: Q01DX009 (ip), vehicle: saline); 127 % of control (T/C endpoint: mean survival time, dose: 10.0 mg/kg/injection, schedule: Q01DX009 (ip), vehicle: saline).
